{"source": "paper PMC6342326", "molecules": {"B1": {"name": "6xHis-tagged Vps21 (Rab5 ortholog) (protein, UniProt P36017 1-210)", "chain": "MNTSVTSIKLVLLGEAAVGKSSIVLRFVSNDFAENKEPTIGAAFLTQRVTINEHTVKFEIWDTAGQERFASLAPMYYRNAQAALVVYDVTKPQSFIKARHWVKELHEQASKDIIIALVGNKIDMLQEGGERKVAREEGEKLAEEKGLLFFETSAKTGENVNDVFLGIGEKIPLKTAEEQNSASNERESNNQRVDLNAANDGTSANSACSC"}, "B2": {"name": "2xFlag-tagged yeast Vps34 N736K (inactive mutant) (enzyme, UniProt P22543 1-875)", "chain": "MSLNNITFCVSQDLDVPLKVKIKSLEGHKPLLKPSQKILNPELMLIGSNVFPSSDLIVSLQVFDKERNRNLTLPIYTPYIPFRNSRTWDYWLTLPIRIKQLTFSSHLRIILWEYNGSKQIPFFNLETSIFNLKDCTLKRGFESLKFRYDVIDHCEVVTDNKDQENLNKYFQGEFTRLPWLDEITISKLRKQRENRTWPQGTFVLNLEFPMLELPVVFIEREIMNTQMNIPTLKNNPGLSTDLREPNRNDPQIKISLGDKYHSTLKFYDPDQPNNDPIEEKYRRLERASKNANLDKQVKPDIKKRDYLNKIINYPPGTKLTAHEKGSIWKYRYYLMNNKKALTKLLQSTNLREESERVEVLELMDSWAEIDIDDALELLGSTFKNLSVRSYAVNRLKKASDKELELYLLQLVEAVCFENLSTFSDKSNSEFTIVDAVSSQKLSGDSMLLSTSHANQKLLKSISSESETSGTESLPIVISPLAEFLIRRALVNPRLGSFFYWYLKSESEDKPYLDQILSSFWSRLDKKSRNILNDQVRLINVLRECCETIKRLKDTTAKKMELLVHLLETKVRPLVKVRPIALPLDPDVLICDVCPETSKVFKSSLSPLKITFKTTLNQPYHLMFKVGDDLRQDQLVVQIISLMNELLKNENVDLKLTPYKILATGPQEGAIEFIPNDTLASILSKYHGILGYLKLHYPDENATLGVQGWVLDNFVKSCAGYCVITYILGVGDRHLDKLLVTPDGHFFHADFGYILGQDPKPFPPLMKLPPQIIEAFGGAESSNYDKFRSYCFVAYSILRRNAGLILNLFELMKTSNIPDIRIDPNGAILRVRERFNLNMSEEDATVHFQNLINDSVNALLPIVIDHLHNLAQYWRT"}}, "key": {"[1]": {"target": "T1, AtVps34-Flag (Arabidopsis) (UniProt P42339)", "T1 sequence": "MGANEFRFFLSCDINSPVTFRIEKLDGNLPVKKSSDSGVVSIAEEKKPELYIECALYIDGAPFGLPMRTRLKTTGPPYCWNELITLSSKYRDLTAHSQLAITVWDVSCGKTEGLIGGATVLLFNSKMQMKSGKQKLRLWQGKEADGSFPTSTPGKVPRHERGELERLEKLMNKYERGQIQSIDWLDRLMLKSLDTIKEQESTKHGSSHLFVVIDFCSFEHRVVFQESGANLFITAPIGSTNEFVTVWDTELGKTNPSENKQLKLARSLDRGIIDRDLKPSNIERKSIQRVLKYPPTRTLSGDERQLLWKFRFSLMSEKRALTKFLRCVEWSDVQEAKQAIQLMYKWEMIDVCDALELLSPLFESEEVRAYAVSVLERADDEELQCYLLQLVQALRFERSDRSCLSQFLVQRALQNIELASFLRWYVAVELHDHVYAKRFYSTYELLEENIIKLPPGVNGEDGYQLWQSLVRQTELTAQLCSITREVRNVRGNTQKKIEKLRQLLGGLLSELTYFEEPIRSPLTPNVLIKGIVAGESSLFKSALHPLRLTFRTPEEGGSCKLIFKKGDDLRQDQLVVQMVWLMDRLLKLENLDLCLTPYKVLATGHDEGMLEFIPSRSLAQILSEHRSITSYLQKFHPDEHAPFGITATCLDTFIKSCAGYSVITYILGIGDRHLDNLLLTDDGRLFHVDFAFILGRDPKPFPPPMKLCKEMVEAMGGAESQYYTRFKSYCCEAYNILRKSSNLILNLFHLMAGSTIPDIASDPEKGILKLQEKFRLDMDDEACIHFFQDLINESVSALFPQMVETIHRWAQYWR", "experiment": "co-IP; Flag-affinity purification of AtVps34-Flag from the detergent-solubilized membrane fraction of N. benthamiana leaves infected with TBSV; p33 detected by Western blot with anti-p33 antibody"}, "[2]": {"target": "Flag-p33 (TBSV replication protein) (Tomato bushy stunt virus (TBSV))", "experiment": "co-IP; Flag-affinity purification of Flag-p33 from subcellular membranes of yeast, including yeast lacking the VPS34 gene; Vps21 detected with anti-His antibody"}, "[3]": {"target": "MBP-tagged TBSV p33 replication protein (Tomato bushy stunt virus (TBSV))", "experiment": "pull-down; MBP-affinity purified MBP-p33 (from E. coli) captures 2xFlag-Vps34p from the soluble fraction of yeast CFE; anti-Flag Western blot; only the target purified"}}, "note": "No constants are given. Whether binding was seen depends on the method and setting. Binding seen in cells or lysates may run through a third protein. Binding can be weak; no strength is given. Tags and fused reporters may be left off the sequences shown."}
{"molecule": "TBSV p33 replication protein (from TBSV infection) (Tomato bushy stunt virus (TBSV))", "values": [{"measurement": "binding", "setting": "[1]", "result": "binds"}]}
{"molecule": "B1", "values": [{"measurement": "binding", "setting": "[2]", "result": "binds"}]}
{"molecule": "B2", "values": [{"measurement": "binding", "setting": "[3]", "result": "binds"}]}
